# Results published in article PMC10219652, “Insights into cargo sorting by SNX32 and its role in neurite outgrowth” (eLife, 2023).
# Amino acid sequences for entries named in this document (tags omitted). Residues count along the entry.
# UniProt P11717, residues 41-2491: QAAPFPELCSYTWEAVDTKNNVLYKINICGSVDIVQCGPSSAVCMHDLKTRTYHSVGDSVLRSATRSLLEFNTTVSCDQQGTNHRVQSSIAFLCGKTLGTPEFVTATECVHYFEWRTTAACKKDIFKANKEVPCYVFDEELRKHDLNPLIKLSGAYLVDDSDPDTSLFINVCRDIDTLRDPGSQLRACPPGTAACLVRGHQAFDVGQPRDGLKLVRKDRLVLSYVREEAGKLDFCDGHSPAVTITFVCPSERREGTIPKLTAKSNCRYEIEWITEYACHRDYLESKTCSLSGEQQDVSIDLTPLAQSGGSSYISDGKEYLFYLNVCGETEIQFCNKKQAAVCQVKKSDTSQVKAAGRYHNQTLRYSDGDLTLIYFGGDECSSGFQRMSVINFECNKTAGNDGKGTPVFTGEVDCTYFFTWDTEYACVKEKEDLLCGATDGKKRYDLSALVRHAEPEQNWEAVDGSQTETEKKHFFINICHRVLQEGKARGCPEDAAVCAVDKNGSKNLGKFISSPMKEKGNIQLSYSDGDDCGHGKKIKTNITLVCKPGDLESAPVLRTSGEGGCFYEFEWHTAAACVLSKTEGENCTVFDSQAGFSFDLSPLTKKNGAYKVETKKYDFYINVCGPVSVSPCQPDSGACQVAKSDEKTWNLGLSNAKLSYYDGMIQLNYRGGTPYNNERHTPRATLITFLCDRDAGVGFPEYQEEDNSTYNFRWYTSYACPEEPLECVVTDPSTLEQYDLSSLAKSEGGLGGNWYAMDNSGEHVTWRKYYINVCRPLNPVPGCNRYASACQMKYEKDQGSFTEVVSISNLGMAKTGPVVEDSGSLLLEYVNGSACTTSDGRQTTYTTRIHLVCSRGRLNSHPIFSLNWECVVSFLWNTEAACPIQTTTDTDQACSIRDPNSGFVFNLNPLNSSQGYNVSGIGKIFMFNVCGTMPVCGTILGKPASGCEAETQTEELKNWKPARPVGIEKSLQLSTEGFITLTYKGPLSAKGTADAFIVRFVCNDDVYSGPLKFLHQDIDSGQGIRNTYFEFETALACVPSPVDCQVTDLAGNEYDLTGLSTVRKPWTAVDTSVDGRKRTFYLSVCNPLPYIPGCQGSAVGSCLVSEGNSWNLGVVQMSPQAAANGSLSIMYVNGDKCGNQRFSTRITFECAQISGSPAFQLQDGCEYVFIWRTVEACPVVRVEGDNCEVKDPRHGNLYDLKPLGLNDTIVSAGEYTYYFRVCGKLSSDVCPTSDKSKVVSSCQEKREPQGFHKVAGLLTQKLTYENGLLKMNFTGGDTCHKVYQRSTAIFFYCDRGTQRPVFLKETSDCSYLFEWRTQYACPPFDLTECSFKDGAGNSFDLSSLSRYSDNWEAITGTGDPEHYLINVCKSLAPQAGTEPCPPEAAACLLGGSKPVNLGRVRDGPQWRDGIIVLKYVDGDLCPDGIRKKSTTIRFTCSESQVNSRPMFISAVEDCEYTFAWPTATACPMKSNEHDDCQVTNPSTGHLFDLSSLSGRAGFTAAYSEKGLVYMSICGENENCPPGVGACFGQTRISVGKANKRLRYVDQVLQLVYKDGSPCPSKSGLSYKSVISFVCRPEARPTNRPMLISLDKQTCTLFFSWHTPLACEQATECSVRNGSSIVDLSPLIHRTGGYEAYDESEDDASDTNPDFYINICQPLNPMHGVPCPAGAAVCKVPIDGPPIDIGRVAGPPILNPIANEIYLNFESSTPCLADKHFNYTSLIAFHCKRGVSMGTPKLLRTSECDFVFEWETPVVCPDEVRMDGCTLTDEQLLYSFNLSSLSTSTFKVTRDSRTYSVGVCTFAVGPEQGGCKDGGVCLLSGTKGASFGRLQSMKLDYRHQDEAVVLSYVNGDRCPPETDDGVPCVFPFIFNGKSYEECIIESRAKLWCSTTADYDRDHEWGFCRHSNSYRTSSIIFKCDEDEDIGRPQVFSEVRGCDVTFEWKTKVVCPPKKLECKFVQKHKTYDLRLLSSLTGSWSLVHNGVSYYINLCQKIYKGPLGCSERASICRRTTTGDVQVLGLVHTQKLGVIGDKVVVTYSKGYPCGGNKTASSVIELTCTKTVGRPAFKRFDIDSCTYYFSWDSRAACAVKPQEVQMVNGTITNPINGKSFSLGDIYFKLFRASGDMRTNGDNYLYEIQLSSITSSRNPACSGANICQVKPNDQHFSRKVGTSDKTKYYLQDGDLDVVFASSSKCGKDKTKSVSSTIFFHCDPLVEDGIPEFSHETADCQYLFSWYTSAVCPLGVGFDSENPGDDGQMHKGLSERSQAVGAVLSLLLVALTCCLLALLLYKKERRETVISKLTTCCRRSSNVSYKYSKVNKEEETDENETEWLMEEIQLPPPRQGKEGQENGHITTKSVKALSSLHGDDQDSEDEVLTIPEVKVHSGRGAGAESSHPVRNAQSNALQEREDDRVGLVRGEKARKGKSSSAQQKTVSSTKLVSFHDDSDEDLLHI
# Molecular target: T1, GFP-tagged SNX32 stably expressed in SHSY5Y cells (UniProt Q86XE0)
# T1 sequence: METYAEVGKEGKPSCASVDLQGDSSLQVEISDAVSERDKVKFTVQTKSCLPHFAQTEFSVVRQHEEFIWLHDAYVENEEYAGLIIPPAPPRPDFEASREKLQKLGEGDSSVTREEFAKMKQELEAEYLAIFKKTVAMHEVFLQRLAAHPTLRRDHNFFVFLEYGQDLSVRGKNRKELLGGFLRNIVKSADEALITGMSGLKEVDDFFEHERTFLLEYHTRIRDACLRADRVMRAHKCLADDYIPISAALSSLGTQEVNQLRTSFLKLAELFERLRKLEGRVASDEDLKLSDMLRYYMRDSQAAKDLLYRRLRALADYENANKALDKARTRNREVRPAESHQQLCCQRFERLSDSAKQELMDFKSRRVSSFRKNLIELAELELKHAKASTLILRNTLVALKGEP
# Test: affinity purification with mass spectrometry; SILAC-based differential proteomics: SH-SY-5Y cells stably expressing GFP, GFP-SNX32 or GFP-SNX32 F131D, lysed in 50 mM Tris-HCl, 0.5% NP-40, GFP trap (ChromoTek), LC-MS/MS on an Orbitrap Velos
row,Substance,binding
1,Basigin (BSG) (from UniProt P35613-2) (receptor),binds
2,Cation-Independent Mannose-6-Phosphate Receptor (CIMPR) (from UniProt P11717 41-2491),binds

# These are yes or no findings as the source states them, for the method shown. In cells and extracts the contact can be indirect. Here binding means that the protein was enriched with, or labelled near, the bait; the list need not be complete. Tags and fused reporters may be left off the sequences shown.
